Hit rate of the full screen: of about 320,000 compounds, about 480 (0.15%) were called active. This list was built around the results that the source calls inconclusive (neither active nor inactive); the mix of calls is not that of the screen. Cut-off read from the data, not from the text of the source: active = inhibition above about 26% (passing the limit was not always enough); inconclusive = no clear call, values can overlap the other calls. Numbered stars: 1 amine (or outer) side, 2 acyl side, 3 side chain; on linkers, the order of the positions; unused ones are H or OH. Square brackets hold non-standard residues; d marks the D form. Peptide text beside a SMILES is read from it. ξ: configuration not given here. ξR = N=C(N)NCCCC(N)C(=O)O; ξF = NC(Cc1ccccc1)C(=O)O; CO = O=C([*:1])[*:2]
biological target: Histone deacetylase 3 (Homo sapiens) (UniProt O15379); assay: HDAC3 deacetylase inhibitors, primary screen, biochemical, fluorescence, cell-free homogeneous (AID 2718); conditions: recombinant HDAC3, fluorogenic peptide/trypsin coupled, at 8.3 µM, active compounds read high

Sequences of proteins named here, by UniProt entry; tags and fusion partners are left off.
UniProt O15379, whole entry, looked up: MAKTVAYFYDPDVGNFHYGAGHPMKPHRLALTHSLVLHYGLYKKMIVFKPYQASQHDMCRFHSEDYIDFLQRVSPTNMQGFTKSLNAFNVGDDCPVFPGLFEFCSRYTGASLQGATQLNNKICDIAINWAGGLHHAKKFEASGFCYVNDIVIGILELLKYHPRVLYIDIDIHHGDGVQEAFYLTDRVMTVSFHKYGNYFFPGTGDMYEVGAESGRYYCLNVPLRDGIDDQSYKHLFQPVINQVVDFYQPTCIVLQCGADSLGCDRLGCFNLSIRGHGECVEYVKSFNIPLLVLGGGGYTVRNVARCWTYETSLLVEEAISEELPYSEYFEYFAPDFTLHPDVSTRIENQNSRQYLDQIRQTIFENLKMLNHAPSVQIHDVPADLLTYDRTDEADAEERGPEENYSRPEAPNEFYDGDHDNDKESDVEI

| SMILES | inhibition |
| --- | --- |
| CC(C)OCCCNC(=O)c1ccc(NS(C)(=O)=O)cc1 | inconclusive: 30.5% |
| Cc1cc(N/N=C/c2ccc(O)cc2O)c2ccccc2n1 | inactive: -8.26% |
| CCC1CCCCN1CCCNC(=O)CCCOc1cc(=O)n(C)c2ccccc12 (stereo not drawn) | inconclusive: 16.1% |
| CCOc1ccc(-n2c(SCC(=O)Nc3ccc4c(c3)OCCO4)nc3c(c2=O)SCC3)cc1 | inconclusive: 19.6% |
| C1CNCCOCCNCCN1 | inconclusive: 13.6% |
| O=c1[nH]nc(CNc2ccc(O)cc2)c2ccccc12 | inconclusive: 15.2% |
| Cc1cccc(C(=O)Nc2cc(C)ccc2NC(=O)COc2ccccc2)c1 | inconclusive: 14% |
| COCCCn1c(C2CCCCC2)nc2oc3cc(OC)ccc3c(=O)c2c1=O | inconclusive: 16.6% |
| OC(CNCCc1ccc(C(F)(F)F)cc1)COc1ccc2ccccc2c1 (stereo not drawn) | inconclusive: 17.1% |
| CC(=O)c1ccc(NC(=O)Nc2ccc3c(c2)N(C)C(=O)CS3)cc1 | inconclusive: 11.3% |
| COc1ccc(C(=O)n2cnc(N)n2)cc1 | active: 70.7% |
| C=CCn1nc(-c2ccccc2)c2c(C)onc2c1=O | inconclusive: 16.6% |
| C(=N\N1CCN(c2ccccn2)CC1)/c1ccccn1 | inconclusive: 15.9% |
| Cc1ccc(-n2c(Cc3noc4ccccc34)n[nH]c2=S)cc1 | inactive: 4.02% |
| CCOC(=O)Cc1nnc(Nc2cccc(C)c2)c2ccccc12 | inactive: 5.21% |
| COc1ccc(NC(=O)CSc2nnc(-c3cc(C)[nH]n3)n2N)cc1OC | inconclusive: 16.1% |
| CC(C)(C)C(=O)Nc1ccc(C(=O)N/N=C/c2ccccc2OC(=O)c2ccccc2)cc1 | active: 35.3% |
| COC(=O)CCn1nc(-c2ccc(C)cc2)c2ccccc2c1=O | inconclusive: 17.9% |
| CC1=C(C(=O)N2CCOCC2)C(c2ccccc2F)C2=C(CC(C)(C)CC2=O)N1 (stereo not drawn) | inconclusive: 11.4% |
| Cc1nc2ccccc2c2oc(C(=O)N3CCC(N4CCCCC4)CC3)cc12 | inconclusive: 25% |
| O=C(NC(=S)Nc1cccc2ncccc12)c1cccs1 | inconclusive: 20.7% |
| O=C1c2ccccc2-c2c1cccc2C(=O)N1CCCCCC1 | inactive: 2.52% |

| SMILES | inhibition |
| --- | --- |
| CCn1c2ccccc2c2cc(NC(=O)CNCC3CCCO3)ccc21 (stereo not drawn) | inconclusive: 28.1% |
| CC(NC(=O)c1ccc(CS(C)(=O)=O)cc1)c1cccc2ccccc12 (stereo not drawn) | inconclusive: 24.4% |
| CC(C)[C@H](NC(=O)[C@H](CCCN=C(N)N)NC(=O)NC(Cc1ccccc1)C(=O)O)C(=O)NC(C=O)CCCN=C(N)N (stereo partly drawn) ({ξF-CO}-Arg-Val-[ξR]-aldehyde) | active: 83.8% |
| CN(CC(=O)NCc1ccc(Cl)cc1)S(=O)(=O)c1cccc2nsnc12 | inconclusive: 8.3% |
| COc1cc(NC(=O)CSCC(=O)Nc2cccc(C(F)(F)F)c2)c(Cl)cc1Cl | inconclusive: 13.7% |
| O=C(/C=C/c1cccs1)N1CCC2(CC1)Oc1ccc(Cl)cc1C(=O)C21CC(c2ccc(Cl)cc2)=NO1 (stereo not drawn) | inconclusive: 16.1% |
| O=C(O)CN1C(=O)/C(=C\c2ccc(OC(=O)c3ccco3)cc2)SC1=S | inconclusive: 27.4% |
| Cc1ccc2c(c1)C(c1ccc(N3CCOCC3)cc1)=NNC(c1cccs1)=N2 | inconclusive: 5.77% |
| c1csc(-c2nc(NCC3CCCO3)c3ccccc3n2)c1 (stereo not drawn) | inactive: 0.345% |
| CCn1c(=O)cc(OCC(=O)NCCc2ccc(OC)c(OC)c2)c2ccccc21 | inconclusive: 18% |
| CC(C)[C@H](NS(=O)(=O)c1cccc(C(F)(F)F)c1)C(=O)OCC(=O)NC(=O)NCc1ccco1 | inactive: -5.76% |
| CCCCOC(=O)C[N+](C)(C)CCOC1CC2CCC1(C)C2(C)C (stereo not drawn) | inactive: -1.46% |
| O=C(Cc1ccc(F)cc1)N1CCC(CC2CC(c3ccc(Cl)cc3)=NO2)(C(=O)NCC2CCCCC2)CC1 (stereo not drawn) | inactive: -4.67% |
| CCCCCC(O)(c1ccc(OCC)cc1)C(CN1CCOCC1)c1ccccc1 (stereo not drawn) | active: 25.8% |
| O=C(Nn1cnnc1)C1Cc2ccccc2CN1S(=O)(=O)c1ccc(F)cc1 (stereo not drawn) | inconclusive: 22.5% |
| COc1ccccc1CN1C[C@@H]2C[C@@H](c3[nH]c4c(C)cccc4c3C)N3CCC[C@@]23C1=O | inactive: 2.01% |
| Cn1c(=O)[nH]c(=O)c2c1nc(SCC(=O)O)n2CCc1ccccc1 | active: 36.8% |
| COC(=O)c1ccc(Cn2c(O)c(N=NC(N)=S)c3ccccc32)o1 | active: 38.9% |
| CCN(CC(=O)Nc1c(F)cccc1F)C(=O)CCCOc1ccc(OC)cc1 | inconclusive: 11.7% |
| CCOc1ccccc1N=CC1=C(O)CC(c2ccccc2)CC1=O (stereo not drawn) | inactive: -1.28% |
| CCN1CCN(S(=O)(=O)c2ccc(Cl)c(C(=O)Nc3cc(Cl)ccc3N3CCOCC3)c2)CC1 | inconclusive: 19% |
| CCOC(=O)c1c(N2C(=O)C=CC2=O)sc(C)c1C | inactive: -2.54% |

| SMILES | inhibition |
| --- | --- |
| COc1cccc(NC(=O)CN(C)C(=O)Cn2c(=O)oc3ccccc32)c1 | inconclusive: 26.7% |
| O=C(Nc1cccc(Br)c1)/C(=C\c1cccnc1)NC(=O)c1ccco1 | inconclusive: 15.4% |
| Cc1nnc(N/N=C/c2ccc(-c3ccccc3F)o2)n1N | inactive: 10.9% |
| CC(C)(C)OC(=O)NCc1ccc(CNC(=O)c2[nH]cnc2C(=O)NC2CCN(C(=O)OC(C)(C)C)CC2)cc1 | inconclusive: 19.6% |
| CCCCOc1ccc(NC(=O)c2cnc(C)cn2)cc1 | inconclusive: 23.6% |
| Cc1cc2nc(-c3ccc(SCc4ccc(C(=O)O)cc4)nc3)[nH]c2cc1C | inactive: -4.86% |
| O=C(Nc1cccc(-c2cn3ccccc3n2)c1)c1ccccc1 | inconclusive: 6.9% |
| O=C(N/N=C\c1ccc(Cl)s1)c1ccc(Cn2cccn2)o1 | inactive: -3.26% |
| O=C(NC(Cc1ccccc1)C(=O)O)/C(=C/c1ccc([N+](=O)[O-])cc1)NC(=O)c1ccccc1 (stereo not drawn) | inactive: -5.71% |
| C=CC[C@H]1Cc2c(cccc2[N+](=O)[O-])[C@H](CC=C)N1 | inconclusive: 18.8% |
| CCN1CCN(Cc2cccc(Oc3ccc(Cl)cc3)c2)CC1 | inconclusive: 26.7% |
| C/C(=C\C(=O)C(F)(F)F)Nc1cc(C)cc(C)c1 | inconclusive: 19.9% |
| O=C(CN1CCC(Cc2ccccc2)CC1)N1CCc2ccccc2C1 | inactive: 15.5% |
| CN(CC(=O)Nc1ccc(F)cc1)C(=O)CSc1nc2ncc(Cl)cc2[nH]1 | inactive: 1.75% |
| O=C(NCc1cccs1)c1ccccc1C(=O)NCc1cccs1 | inconclusive: 20.2% |
| COc1ccccc1Nc1c([N+](=O)[O-])cc(C)cc1[N+](=O)[O-] | inconclusive: 13.4% |
| CCN(CC)S(=O)(=O)N1CCC(C(=O)NC(C)CCc2ccccc2)CC1 (stereo not drawn) | inconclusive: 16.3% |
| COC(=O)c1ccc(NC(=O)CSc2nnc(-c3ccncc3)n2N)cc1 | inconclusive: 19% |
| CC(C)(C)c1nc(CN2CCOCC2)cc(CN2CCOCC2)c1O | inconclusive: 16.4% |
| Cc1ccc(C)c(Cn2nc(-c3cc(C)ccc3C)ccc2=O)c1 | inconclusive: 17.2% |
| O=C(Nc1ccon1)c1csc2c1CCCC2 | inactive: -0.18% |
| O=C(Nc1ccc(O)cc1)/C(=C\c1cccs1)NC(=O)c1ccccc1 | inactive: 6.11% |

Sorted by formula weight (smallest number first): 6 of the compounds above.

| SMILES | inhibition |
| --- | --- |
| C=CC[C@H]1Cc2c(cccc2[N+](=O)[O-])[C@H](CC=C)N1 | inconclusive: 18.8% |
| Cc1ccc(C)c(Cn2nc(-c3cc(C)ccc3C)ccc2=O)c1 | inconclusive: 17.2% |
| CC(C)(C)c1nc(CN2CCOCC2)cc(CN2CCOCC2)c1O | inconclusive: 16.4% |
| O=C(NCc1cccs1)c1ccccc1C(=O)NCc1cccs1 | inconclusive: 20.2% |
| CCN(CC)S(=O)(=O)N1CCC(C(=O)NC(C)CCc2ccccc2)CC1 (stereo not drawn) | inconclusive: 16.3% |
| O=C(NC(Cc1ccccc1)C(=O)O)/C(=C/c1ccc([N+](=O)[O-])cc1)NC(=O)c1ccccc1 (stereo not drawn) | inactive: -5.71% |

Following part

| SMILES | inhibition |
| --- | --- |
| CCN1CCS/C1=C/C=C/C1=[N+](CC)CCS1 | active: 35.7% |
| CCOC(=O)C(O)(NC(=O)c1cccnc1)C(F)(F)F (stereo not drawn) | active: 41.8% |
| CCCCCC(=O)Nc1cccc2ccccc12 | inconclusive: 16.5% |
| Cc1cnc(NC(=O)C2(c3ccccc3)CC2)s1 | inconclusive: 12.8% |
| COc1ccc(/C=N/NC(=O)Cc2csc(Nc3cccc(C(F)(F)F)c3)n2)c(OC)c1 | inconclusive: 25.4% |
| C[N+]1(CCC(=O)c2ccccc2)CCCCC1 | inconclusive: 18.2% |
| COc1ccc(Cl)cc1NC(=O)C1CCCN(c2cc(C)nc3ncnn23)C1 (stereo not drawn) | inactive: 9.55% |
| Cc1c(C(=O)N2CCN(c3ccccn3)CC2)cccc1[N+](=O)[O-] | inactive: 2.21% |
| COC(=O)C1=NNC2(c3ccc(Cl)cc3)C(=O)N(c3ccccc3)C(=O)C12 (stereo not drawn) | active: 34.1% |
| COc1ccc(N2CSC3=C(C#N)C(c4cccs4)CC(=O)N3C2)cc1 (stereo not drawn) | inconclusive: 20.9% |
| CC1(C)CC(=O)c2sc(NS(=O)(=O)c3ccc([N+](=O)[O-])cc3)nc2C1 | inconclusive: 37.8% |
| CCOC(=O)C1(Cc2ccccc2Cl)CCN(S(=O)(=O)N(C)C)CC1 | inconclusive: 19.9% |
| CCn1c(SCC(=O)O)nc2sc3c(c2c1=O)CCC3 | inactive: -9.25% |
| COc1ccc(NC(=O)Cn2c(=O)n(CC(=O)NCc3ccco3)c(=O)c3ccccc32)cc1 | inconclusive: 19.7% |
| Cc1cc(-c2nnnn2-c2ccc(F)cc2)no1 | inconclusive: 45.4% |
| CC1(C)CC2CC(C)(CN2C(=O)COC(=O)c2ccccc2C(F)(F)F)C1 (stereo not drawn) | inconclusive: 19.3% |
| COc1cc(NC(=O)CSc2nc(=O)n(CCN3CCOCC3)c3c2CCCC3)cc(OC)c1 | inconclusive: 25.4% |
| COc1ccc2oc(C(=O)OCC(=O)NC(=O)c3ccccc3)c(C)c2c1 | inactive: 2.37% |
| CCOc1ccc(NC(=O)CN2C(=O)CCSc3ccc(S(=O)(=O)N4CCCC4)cc32)cc1 | inconclusive: 9.66% |
| COc1ccc(C(=O)C2CCCN(Cc3ccc(C#CCCO)cc3)C2)cc1F (stereo not drawn) | inconclusive: 15.3% |
| O=C(COC(=O)c1cc[n+]([O-])cc1)Nc1ccccc1Sc1ccccc1 | inactive: -2.68% |
| O=C(NN=Cc1c(F)cccc1F)c1ccccc1NS(=O)(=O)c1cccs1 | inconclusive: 16.9% |
